Patent publication US20150362496A1

Sequences of proteins named here, by UniProt entry; tags and fusion partners are left off. A change or cut given only in a name is not applied to a line headed by its entry.
UniProt P20908: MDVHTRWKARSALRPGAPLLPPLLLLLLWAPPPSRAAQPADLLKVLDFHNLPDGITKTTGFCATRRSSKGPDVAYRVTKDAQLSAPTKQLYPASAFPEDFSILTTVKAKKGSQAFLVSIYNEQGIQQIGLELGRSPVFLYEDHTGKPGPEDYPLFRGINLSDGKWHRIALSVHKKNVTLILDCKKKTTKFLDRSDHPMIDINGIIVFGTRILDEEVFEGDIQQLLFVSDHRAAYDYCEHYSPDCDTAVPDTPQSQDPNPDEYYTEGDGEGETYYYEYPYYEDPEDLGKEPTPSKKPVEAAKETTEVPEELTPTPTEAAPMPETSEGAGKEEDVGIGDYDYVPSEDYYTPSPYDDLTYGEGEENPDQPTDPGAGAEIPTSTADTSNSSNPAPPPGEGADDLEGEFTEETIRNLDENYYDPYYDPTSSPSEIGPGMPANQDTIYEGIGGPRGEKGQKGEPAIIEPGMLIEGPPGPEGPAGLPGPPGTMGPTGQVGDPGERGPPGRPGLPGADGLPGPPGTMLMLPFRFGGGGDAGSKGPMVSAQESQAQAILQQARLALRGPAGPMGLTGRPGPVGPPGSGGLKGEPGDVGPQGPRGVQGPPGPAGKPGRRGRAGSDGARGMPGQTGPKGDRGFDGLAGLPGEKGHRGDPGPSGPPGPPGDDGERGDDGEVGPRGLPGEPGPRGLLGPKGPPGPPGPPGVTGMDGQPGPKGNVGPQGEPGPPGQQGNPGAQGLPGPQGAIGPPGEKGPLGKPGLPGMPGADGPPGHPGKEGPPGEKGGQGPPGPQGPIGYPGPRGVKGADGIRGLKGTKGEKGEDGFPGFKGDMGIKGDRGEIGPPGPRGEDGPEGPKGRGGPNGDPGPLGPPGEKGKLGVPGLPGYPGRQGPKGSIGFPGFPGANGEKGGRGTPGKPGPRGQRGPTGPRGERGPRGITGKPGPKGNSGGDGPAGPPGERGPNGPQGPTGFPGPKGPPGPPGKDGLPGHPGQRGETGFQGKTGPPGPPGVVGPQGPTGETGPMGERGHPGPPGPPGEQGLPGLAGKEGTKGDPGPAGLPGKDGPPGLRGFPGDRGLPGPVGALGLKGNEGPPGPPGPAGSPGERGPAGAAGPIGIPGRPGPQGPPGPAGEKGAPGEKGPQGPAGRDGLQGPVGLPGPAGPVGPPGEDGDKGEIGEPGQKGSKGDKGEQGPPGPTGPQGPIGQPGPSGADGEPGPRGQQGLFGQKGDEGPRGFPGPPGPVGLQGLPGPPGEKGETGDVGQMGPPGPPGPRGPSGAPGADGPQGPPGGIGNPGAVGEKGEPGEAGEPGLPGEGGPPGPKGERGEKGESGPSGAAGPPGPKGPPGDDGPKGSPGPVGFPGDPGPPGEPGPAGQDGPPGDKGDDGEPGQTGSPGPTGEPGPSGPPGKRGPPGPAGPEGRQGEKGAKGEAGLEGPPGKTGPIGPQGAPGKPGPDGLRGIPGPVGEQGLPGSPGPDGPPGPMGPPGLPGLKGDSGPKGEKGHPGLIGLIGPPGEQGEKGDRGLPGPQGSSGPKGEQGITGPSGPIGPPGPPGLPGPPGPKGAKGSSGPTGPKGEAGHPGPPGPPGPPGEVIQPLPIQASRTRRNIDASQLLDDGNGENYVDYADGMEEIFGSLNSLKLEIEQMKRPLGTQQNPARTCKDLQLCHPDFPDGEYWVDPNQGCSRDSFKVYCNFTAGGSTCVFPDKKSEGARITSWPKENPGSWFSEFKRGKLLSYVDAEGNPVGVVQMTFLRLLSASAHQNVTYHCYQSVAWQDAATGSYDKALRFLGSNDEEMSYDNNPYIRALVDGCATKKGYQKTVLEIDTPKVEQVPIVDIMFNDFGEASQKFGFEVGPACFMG

Target: recombinant proCOL5A1 (UniProt P20908)
Assay: Western blot on recombinant proteins

- binding: no binding
B1: 1E8.33 monoclonal antibody (antibody, V domains shown)
VH: EVQLQESGPELVKTGSSVKISCKASGYSFTGYYMHWVKQSQGKSLEWIGYINCYNGATSYNRNFKGKATFTVDTSSSTAYMQFNSLTSGDSAVYYCAIWDYEFHVMDYWGQRTSLTVSS
VL: ENVLTQSPAIMSASLGEKVTMSCRASSSVNYMYWYQQKSDASPKLWIYYTSNLAPGVPARFSGSGSGNSYSLTISSMEGEDADTYYCQQFTSSPWTFGGGTKLEIK

Results are given in words; binding and its absence hold for the method and conditions named.
